From PMC4507007
These are yes or no findings as the source states them, for the method shown. Binding seen in cells or lysates may run through a third protein. A yes stands for co-enrichment or nearness to the bait. Other partners may have been found. Each block holds one molecule with its values, some of them ahead of it.

The chains behind the UniProt entries cited, without tags or fusion partners. Where a name states a change or a piece, a line headed by the entry shows the natural chain unless it says otherwise. A line that says so, or that is headed by a name, gives the form on record, which may keep a tag or linker.
3 × FLAG–DOCK9 (Q9BZ29, form named): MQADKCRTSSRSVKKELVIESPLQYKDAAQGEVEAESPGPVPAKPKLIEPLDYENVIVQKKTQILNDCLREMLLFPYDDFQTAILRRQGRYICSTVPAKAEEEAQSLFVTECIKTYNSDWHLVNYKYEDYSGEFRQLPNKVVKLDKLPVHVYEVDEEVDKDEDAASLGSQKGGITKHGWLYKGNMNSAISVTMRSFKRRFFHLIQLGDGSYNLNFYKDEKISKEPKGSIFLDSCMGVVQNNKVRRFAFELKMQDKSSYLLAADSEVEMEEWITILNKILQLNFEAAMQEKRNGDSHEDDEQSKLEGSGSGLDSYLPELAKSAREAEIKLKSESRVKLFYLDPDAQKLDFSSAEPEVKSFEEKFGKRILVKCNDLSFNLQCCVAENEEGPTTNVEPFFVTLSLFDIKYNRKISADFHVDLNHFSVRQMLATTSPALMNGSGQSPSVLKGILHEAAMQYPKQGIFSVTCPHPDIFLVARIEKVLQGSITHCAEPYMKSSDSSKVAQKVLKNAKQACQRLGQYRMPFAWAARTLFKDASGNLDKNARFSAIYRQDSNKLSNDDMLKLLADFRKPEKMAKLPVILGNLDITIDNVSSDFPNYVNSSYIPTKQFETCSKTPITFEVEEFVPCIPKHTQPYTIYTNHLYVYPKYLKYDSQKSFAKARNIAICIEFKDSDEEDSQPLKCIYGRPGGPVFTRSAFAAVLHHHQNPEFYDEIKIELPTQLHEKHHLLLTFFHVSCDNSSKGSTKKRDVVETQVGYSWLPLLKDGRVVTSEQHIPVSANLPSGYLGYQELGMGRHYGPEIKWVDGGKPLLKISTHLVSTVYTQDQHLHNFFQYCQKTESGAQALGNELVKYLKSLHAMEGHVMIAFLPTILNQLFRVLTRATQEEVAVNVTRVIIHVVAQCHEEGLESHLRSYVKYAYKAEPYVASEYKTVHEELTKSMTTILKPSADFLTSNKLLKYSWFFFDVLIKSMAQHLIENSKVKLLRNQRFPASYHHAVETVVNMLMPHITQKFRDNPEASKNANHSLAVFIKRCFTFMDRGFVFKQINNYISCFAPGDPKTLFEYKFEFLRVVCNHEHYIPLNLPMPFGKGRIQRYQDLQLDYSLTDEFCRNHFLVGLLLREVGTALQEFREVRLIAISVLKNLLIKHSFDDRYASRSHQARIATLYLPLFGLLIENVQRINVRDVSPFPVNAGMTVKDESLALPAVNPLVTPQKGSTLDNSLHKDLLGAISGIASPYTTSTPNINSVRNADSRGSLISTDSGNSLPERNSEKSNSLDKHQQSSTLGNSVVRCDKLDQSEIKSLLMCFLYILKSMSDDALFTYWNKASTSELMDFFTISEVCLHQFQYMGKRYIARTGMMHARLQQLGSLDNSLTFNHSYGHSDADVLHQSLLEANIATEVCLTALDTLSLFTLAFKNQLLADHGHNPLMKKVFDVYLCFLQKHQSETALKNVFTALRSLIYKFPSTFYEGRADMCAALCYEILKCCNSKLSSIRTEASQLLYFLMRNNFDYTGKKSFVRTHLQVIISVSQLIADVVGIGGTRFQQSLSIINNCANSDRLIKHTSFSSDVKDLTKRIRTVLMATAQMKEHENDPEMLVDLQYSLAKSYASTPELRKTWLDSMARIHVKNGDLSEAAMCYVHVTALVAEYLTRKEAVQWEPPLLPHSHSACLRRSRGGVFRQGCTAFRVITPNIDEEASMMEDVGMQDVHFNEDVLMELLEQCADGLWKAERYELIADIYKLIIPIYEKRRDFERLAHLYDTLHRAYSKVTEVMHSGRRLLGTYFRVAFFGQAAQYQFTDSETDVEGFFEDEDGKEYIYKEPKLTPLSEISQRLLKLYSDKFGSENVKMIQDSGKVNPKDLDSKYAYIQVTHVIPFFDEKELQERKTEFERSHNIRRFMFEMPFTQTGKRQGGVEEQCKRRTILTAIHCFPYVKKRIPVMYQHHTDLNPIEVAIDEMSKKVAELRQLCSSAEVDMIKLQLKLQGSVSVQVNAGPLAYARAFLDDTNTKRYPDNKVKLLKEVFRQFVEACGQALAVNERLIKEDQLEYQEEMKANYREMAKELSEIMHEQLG
UniProt Q8N1I0: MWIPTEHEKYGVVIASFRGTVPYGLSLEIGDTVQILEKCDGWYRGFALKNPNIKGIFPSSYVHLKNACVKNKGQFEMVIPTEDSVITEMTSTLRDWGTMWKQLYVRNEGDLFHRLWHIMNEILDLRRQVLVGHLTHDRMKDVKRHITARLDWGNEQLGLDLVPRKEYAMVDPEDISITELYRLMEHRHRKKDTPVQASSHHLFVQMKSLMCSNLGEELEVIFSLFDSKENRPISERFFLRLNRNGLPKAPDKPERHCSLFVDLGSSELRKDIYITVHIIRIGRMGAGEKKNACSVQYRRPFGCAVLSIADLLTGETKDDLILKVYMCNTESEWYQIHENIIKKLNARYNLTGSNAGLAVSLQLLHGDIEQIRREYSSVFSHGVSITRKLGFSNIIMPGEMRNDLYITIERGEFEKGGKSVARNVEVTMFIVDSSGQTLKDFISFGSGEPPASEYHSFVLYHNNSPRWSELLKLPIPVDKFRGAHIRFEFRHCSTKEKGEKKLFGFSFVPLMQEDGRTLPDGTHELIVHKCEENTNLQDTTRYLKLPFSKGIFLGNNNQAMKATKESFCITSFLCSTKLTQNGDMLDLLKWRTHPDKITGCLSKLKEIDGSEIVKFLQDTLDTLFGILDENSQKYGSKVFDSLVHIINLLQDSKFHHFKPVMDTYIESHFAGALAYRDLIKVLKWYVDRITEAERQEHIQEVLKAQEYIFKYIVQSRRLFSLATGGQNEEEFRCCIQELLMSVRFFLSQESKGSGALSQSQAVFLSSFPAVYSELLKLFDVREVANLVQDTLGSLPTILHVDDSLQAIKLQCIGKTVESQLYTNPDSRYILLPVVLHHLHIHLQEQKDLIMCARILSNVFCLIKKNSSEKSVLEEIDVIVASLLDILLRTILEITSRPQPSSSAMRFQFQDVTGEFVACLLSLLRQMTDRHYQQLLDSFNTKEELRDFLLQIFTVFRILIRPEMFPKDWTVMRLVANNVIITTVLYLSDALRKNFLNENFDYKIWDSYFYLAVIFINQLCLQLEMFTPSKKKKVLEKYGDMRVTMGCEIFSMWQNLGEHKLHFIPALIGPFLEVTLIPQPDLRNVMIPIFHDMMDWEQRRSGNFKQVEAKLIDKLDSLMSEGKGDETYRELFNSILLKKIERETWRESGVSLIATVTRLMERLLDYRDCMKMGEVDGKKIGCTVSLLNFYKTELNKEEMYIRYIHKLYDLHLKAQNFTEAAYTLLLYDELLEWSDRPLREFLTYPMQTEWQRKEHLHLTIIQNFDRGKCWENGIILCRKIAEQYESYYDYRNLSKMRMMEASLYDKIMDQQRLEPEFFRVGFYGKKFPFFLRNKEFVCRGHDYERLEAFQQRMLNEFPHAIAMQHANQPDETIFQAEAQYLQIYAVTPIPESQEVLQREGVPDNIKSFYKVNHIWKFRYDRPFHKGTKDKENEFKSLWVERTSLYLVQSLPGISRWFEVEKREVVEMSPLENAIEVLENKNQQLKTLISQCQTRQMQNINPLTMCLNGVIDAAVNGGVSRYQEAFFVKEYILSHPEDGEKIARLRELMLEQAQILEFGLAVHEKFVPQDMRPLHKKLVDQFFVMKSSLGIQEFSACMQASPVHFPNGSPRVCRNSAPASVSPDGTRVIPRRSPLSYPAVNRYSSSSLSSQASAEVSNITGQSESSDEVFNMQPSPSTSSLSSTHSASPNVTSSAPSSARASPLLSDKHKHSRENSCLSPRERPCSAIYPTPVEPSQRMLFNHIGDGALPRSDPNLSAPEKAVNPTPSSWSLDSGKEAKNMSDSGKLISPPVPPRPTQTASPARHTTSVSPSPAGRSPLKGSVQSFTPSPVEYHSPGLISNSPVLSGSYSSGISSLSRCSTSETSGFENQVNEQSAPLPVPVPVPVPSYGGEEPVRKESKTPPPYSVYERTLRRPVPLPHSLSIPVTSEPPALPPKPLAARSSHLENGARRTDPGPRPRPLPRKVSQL

Biological target: 3 × FLAG–DOCK9 (UniProt Q9BZ29)
Experiment: affinity purification with mass spectrometry; 3 × FLAG–DOCK9 overexpressed in HEK293T, IP with M2-agarose, elution with phosphoric acid, trypsin digestion, LC-MS/MS (Orbitrap Elite, MASCOT); 3 × FLAG empty vector as control

binding: binds
Molecule: DOCK4 found by mass spectrometry in 293T cells (from UniProt Q8N1I0 1-1966)

binding: binds
B1: zyxin (protein, UniProt Q15942 1-572)
chain: MAAPRPSPAISVSVSAPAFYAPQKKFGPVVAPKPKVNPFRPGDSEPPPAPGAQRAQMGRVGEIPPPPPEDFPLPPPPLAGDGDDAEGALGGAFPPPPPPIEESFPPAPLEEEIFPSPPPPPEEEGGPEAPIPPPPQPREKVSSIDLEIDSLSSLLDDMTKNDPFKARVSSGYVPPPVATPFSSKSSTKPAAGGTAPLPPWKSPSSSQPLPQVPAPAQSQTQFHVQPQPQPKPQVQLHVQSQTQPVSLANTQPRGPPASSPAPAPKFSPVTPKFTPVASKFSPGAPGGSGSQPNQKLGHPEALSAGTGSPQPPSFTYAQQREKPRVQEKQHPVPPPAQNQNQVRSPGAPGPLTLKEVEELEQLTQQLMQDMEHPQRQNVAVNELCGRCHQPLARAQPAVRALGQLFHIACFTCHQCAQQLQGQQFYSLEGAPYCEGCYTDTLEKCNTCGEPITDRMLRATGKAYHPHCFTCVVCARPLEGTSFIVDQANRPHCVPDYHKQYAPRCSVCSEPIMPEPGRDETVRVVALDKNFHMKCYKCEDCGKPLSIEADDNGCFPLDGHVLCRKCHTARAQT
